No constants are given. Whether binding was seen depends on the method and setting. For some assays here: Binding seen in cells or lysates may run through a third protein. Some results given as binding are weak or reduced against the parent protein; the word gives no strength. For some assays here: Where a sequence is shown, tags or fusion partners need not be part of it.
Legend:
GST-CILP1 fusion protein = molecular target: T1, GST-CILP1 fusion protein (UniProt O75339); test: pull-down; purified GST-CILP1 (or GST) on glutathione agarose, purified His-YBX1 added for 3 h at 4 °C in 20 mM Tris, 100 mM NaCl, 1 mM EDTA, 1 mM DTT; four washes, Western blot; both purified
T1 sequence: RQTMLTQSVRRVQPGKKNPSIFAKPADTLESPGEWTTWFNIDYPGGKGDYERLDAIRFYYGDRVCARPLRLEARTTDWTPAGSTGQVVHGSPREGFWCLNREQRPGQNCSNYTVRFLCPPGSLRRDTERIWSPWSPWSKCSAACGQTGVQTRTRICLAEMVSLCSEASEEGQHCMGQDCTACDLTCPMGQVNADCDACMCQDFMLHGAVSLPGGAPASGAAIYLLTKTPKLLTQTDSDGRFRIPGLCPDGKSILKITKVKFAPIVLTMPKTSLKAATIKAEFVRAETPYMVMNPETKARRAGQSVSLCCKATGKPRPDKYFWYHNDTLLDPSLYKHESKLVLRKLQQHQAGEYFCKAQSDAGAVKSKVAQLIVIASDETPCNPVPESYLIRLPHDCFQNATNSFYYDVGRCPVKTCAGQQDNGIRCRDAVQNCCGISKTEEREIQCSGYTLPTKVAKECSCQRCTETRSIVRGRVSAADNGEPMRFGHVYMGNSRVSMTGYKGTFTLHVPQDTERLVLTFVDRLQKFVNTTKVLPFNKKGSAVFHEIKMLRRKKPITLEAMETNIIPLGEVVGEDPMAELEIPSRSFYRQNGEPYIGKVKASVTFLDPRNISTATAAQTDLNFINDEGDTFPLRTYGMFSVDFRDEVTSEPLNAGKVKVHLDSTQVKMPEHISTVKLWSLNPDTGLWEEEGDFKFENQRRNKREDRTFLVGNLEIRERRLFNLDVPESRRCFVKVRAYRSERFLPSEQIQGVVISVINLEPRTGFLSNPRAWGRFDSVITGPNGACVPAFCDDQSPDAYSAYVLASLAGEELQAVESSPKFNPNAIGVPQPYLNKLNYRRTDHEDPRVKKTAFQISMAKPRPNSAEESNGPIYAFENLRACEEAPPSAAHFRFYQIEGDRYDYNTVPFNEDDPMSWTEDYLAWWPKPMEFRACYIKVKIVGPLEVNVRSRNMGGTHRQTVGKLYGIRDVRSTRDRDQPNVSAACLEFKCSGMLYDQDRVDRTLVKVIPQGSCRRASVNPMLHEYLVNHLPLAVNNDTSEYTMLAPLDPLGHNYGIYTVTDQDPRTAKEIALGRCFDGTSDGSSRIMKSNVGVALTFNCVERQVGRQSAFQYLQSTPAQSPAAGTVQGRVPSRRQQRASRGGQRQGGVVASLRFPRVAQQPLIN

By UniProt entry, the sequences of proteins in these tests, tags left out.
UniProt P67809: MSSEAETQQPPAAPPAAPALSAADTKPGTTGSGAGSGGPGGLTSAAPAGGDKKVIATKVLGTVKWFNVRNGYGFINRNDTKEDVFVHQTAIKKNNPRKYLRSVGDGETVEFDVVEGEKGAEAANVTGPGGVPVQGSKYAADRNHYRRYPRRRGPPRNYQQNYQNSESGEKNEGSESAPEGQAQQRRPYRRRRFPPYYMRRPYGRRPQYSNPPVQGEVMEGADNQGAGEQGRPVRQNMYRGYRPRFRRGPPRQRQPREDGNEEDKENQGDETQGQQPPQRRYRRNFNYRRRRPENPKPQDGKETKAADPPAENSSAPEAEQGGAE

[1] = molecular target: T2, Cartilage Intermediate Layer Protein 1 (CILP1) (human (endogenous in HSFs)) (UniProt O75339); test: co-IP; whole-cell lysates of HSFs in IP lysis buffer, 5 ug IP antibody overnight at 4 °C, protein A/G agarose beads for 4 h, five washes, Western blot
T2 sequence: T1 sequence

Substance | binding (GST-CILP1 fusion protein) | binding [1]
His-YBX1 fusion protein (from UniProt P67809 1-324) | binds | –
Y-box-binding protein 1 (YBX1) (from UniProt P67809 1-324) | – | binds

Source: paper PMC12064789
